Some entries share one result that the patent states for a list of compounds.
What was measured:
Type in all cases: in vivo
[1] = tested on: Southern armyworm (Spodoptera eridania), 2nd instar larvae; assay: Action on southern armyworm (Spodoptera eridania), 2nd instar larvae, sprayed lima bean plants; details: 300 ppm; 2nd instar larvae on lima bean plants, 4 days after treatment
Method: The active compounds were formulated by a Tecan liquid handler in 100% cyclohexanone as a 10,000 ppm solution supplied in tubes. The 10,000 ppm solution was serially diluted in 100% cyclohexanone to make interim solutions. These served as stock solutions for which final dilutions were made by the Tecan in 50% acetone:50% water (v/v) into 10 or 20 ml glass vials. A nonionic surfactant (Kinetic®) was included in the solution at a volume of 0.01% (v/v). The vials were then inserted into an automated electrostatic sprayer equipped with an atomizing nozzle for application to plants/insects.
Lima bean plants (variety Sieve) were grown 2 plants to a pot and selected for treatment at the 1st true leaf stage. Test solutions were sprayed onto the foliage by an automated electrostatic plant sprayer equipped with an atomizing spray nozzle. The plants were dried in the sprayer fume hood and then removed from the sprayer. Each pot was placed into perforated plastic bags with a zip closure. About 10 to 11 armyworm larvae were placed into the bag and the bags zipped closed. Test plants were maintained in a growth room at about 25° C. and about 20-40% relative humidity for 4 days, avoiding direct exposure to fluorescent light (24 hour photoperiod) to prevent trapping of heat inside the bags. Mortality and reduced feeding were assessed 4 days after treatment, compared to untreated control plants.

[2] = tested on: Diamond back moth (Plutella xylostella); assay: Action on diamond back moth (Plutella xylostella), cabbage leaf dip; details: 500 ppm; 3rd instar larvae on dipped cabbage leaves, 72 hours after treatment
Method: The active compound is dissolved at the desired concentration in a mixture of 1:1 (v/v) distilled water: acetone. Surfactant (Kinetic® HV) is added at a rate of 0.01% (v/v). The test solution is prepared at the day of use.
Leaves of cabbage were dipped in test solution and air-dried. Treated leaves were placed in petri dishes lined with moist filter paper and inoculated with ten 3rd instar larvae. Mortality was recorded 72 hours after treatment. Feeding damages were also recorded using a scale of 0-100%.

[3] = tested on: Orchid thrips (Dichromothrips corbetti); assay: Action on orchid thrips (Dichromothrips corbetti), floral-immersion technique; details: 500 ppm; adult thrips, 72 hours after treatment
Method: Dichromothrips corbetti adults used for bioassay were obtained from a colony maintained continuously under laboratory conditions. For testing purposes, the test compound is diluted in a 1:1 mixture of acetone:water (vol:vol), plus Kinetic® HV at a rate of 0.01% v/v.
Thrips potency of each compound was evaluated by using a floral-immersion technique. All petals of individual, intact orchid flowers were dipped into treatment solution and allowed to dry in Petri dishes. Treated petals were placed into individual re-sealable plastic along with about 20 adult thrips. All test arenas were held under continuous light and a temperature of about 28° C. for duration of the assay. After 3 days, the numbers of live thrips were counted on each petal. The percent mortality was recorded 72 hours after treatment.

[4] = tested on: boll weevil (Anthonomus grandis); assay: Action on boll weevil (Anthonomus grandis), microtiter plate diet test; details: 800 ppm; egg and larval mortality after 5 days
Method: For evaluating control of boll weevil (Anthonomus grandis) the test unit consisted of 96-well-microtiter plates containing an insect diet and 5-10 A. grandis eggs.
The compounds were formulated using a solution containing 75% (v/v) water and 25% (v/v) DMSO. Different concentrations of formulated compounds were sprayed onto the insect diet at 5 μl, using a custom built micro atomizer, at two replications.
After application, microtiter plates were incubated at about 25+1° C. and about 75+5% relative humidity for 5 days. Egg and larval mortality was then visually assessed.

[5] = tested on: tobacco budworm (Heliothis virescens); assay: Action on tobacco budworm (Heliothis virescens), microtiter plate diet test; details: 800 ppm; egg and larval mortality after 5 days
Method: For evaluating control of tobacco budworm (Heliothis virescens) the test unit consisted of 96-well-microtiter plates containing an insect diet and 15-25 H. virescens eggs.
The compounds were formulated using a solution containing 75% v/v water and 25% v/v DMSO. Different concentrations of formulated compounds were sprayed onto the insect diet at 10 μl, using a custom-built micro atomizer, at two replications.
After application, microtiter plates were incubated at about 28+1° C. and about 80+5% relative humidity for 5 days. Egg and larval mortality were then visually assessed.

[6] = tested on: yellow fever mosquito (Aedes aegypti); details: 800 ppm; larval mortality visually assessed after 2 days
Method: For evaluating control of yellow fever mosquito (Aedes aegypti) the test unit consisted of 96-well-microtiter plates containing 200 μl of tap water per well and 5-15 freshly hatched A. aegypti larvae.
The active compounds or mixtures were formulated using a solution containing 75% (v/v) water and 25% (v/v) DMSO. Different concentrations of formulated compounds or mixtures were sprayed onto the insect diet at 2.5 μl using a custom built micro atomizer, at two replications.
For experimental mixtures in these tests identical volumes of both mixing partners at the desired concentrations respectively, were mixed together.
After application, microtiter plates were incubated at 28+1° C., 80+5% RH for 2 days. Larval mortality was then visually assessed.

Structure (SMILES)	mortality in comparison with untreated controls [1]	mortality in comparison with untreated controls [2]	mortality in comparison with untreated controls [3]	mortality in comparison with untreated controls [4]	mortality in comparison with untreated controls [5]	mortality in comparison with untreated controls [6]
Cc1c(-c2ccc(C=NN=C3SCC(=O)N3c3ccccc3C(C)C)cc2)nn(C)c1NC(=O)c1ccc(C(F)(F)F)cc1 [Compound C-16]	at least 75%	at least 75%	at least 75%	at least 75%	at least 75%	at least 50%
Cc1c(-c2ccc(C=NN3C(=O)CSC3=Nc3ccccc3C(C)C)cc2)nn(C)c1NC(=O)c1ccc(C(F)(F)F)cc1 [Compound C-17]	at least 75%	at least 75%	at least 75%	at least 75%	at least 75%	at least 50%
CC(C)c1ccccc1NC(=S)NN=Cc1ccc(-c2cc(N(C)C(=O)c3ccc(OC(F)(F)F)cc3)n(C)n2)cc1 [Compound C-18]	at least 75%	at least 75%	at least 75%	at least 75%	at least 75%	at least 50%
CC(C)c1ccccc1N1C(=O)CSC1=NN=Cc1ccc(-c2cc(N(C)C(=O)c3ccc(OC(F)(F)F)cc3)n(C)n2)cc1 [Compound C-19]	at least 75%	at least 75%	at least 75%	at least 75%	at least 75%	at least 50%
CC(C)c1ccccc1N=C1SCC(=O)N1N=Cc1ccc(-c2cc(N(C)C(=O)c3ccc(OC(F)(F)F)cc3)n(C)n2)cc1 [Compound C-20]	at least 75%	at least 75%	at least 75%	at least 75%	at least 75%	at least 50%
CC(C)c1ccccc1N1C(=O)CS/C1=N\N=C\c1ccc(-c2cc(NC(=O)c3ccc(OC(F)(F)F)cc3)n(C)n2)c(F)c1 [Compound C-24]	at least 75%	at least 75%	at least 75%	at least 75%	at least 75%	at least 50%
CC(C)c1ccccc1/N=C1\SCC(=O)N1/N=C/c1ccc(-c2cc(NC(=O)c3ccc(OC(F)(F)F)cc3)n(C)n2)c(F)c1 [Compound C-25]	at least 75%	at least 75%	at least 75%	at least 75%	at least 75%	at least 50%
CC(C)c1ccccc1/N=C1\SCC(=O)N1/N=C/c1ccc(-c2cc(N(C)C(=O)c3ccc(OC(F)(F)F)cc3)n(C)n2)c(F)c1 [Compound C-28]	at least 75%	at least 75%	at least 75%	at least 75%	at least 75%	at least 50%
CCn1nc(-c2ccc(/C=N/N=C3\SCC(=O)N3c3ccccc3C(C)C)cc2)cc1NC(=O)c1ccc(OC(F)(F)F)cc1 [Compound C-30]	at least 75%	at least 75%	at least 75%	at least 75%	at least 75%	at least 50%
CCn1nc(-c2ccc(/C=N/N3C(=O)CS/C3=N\c3ccccc3C(C)C)cc2)cc1NC(=O)c1ccc(OC(F)(F)F)cc1 [Compound C-31]	at least 75%	at least 75%	at least 75%	at least 75%	at least 75%	at least 50%
CCn1nc(-c2ccc(/C=N/NC(=S)Nc3ccccc3C(C)C)cc2)cc1N(C)C(=O)c1ccc(OC(F)(F)F)cc1 [Compound C-34, N-[2-ethyl-5-[4-[(E)-[(2-isopropylphenyl)carbamothioylhydrazono]methyl]phenyl]pyrazol-3-yl]-N-methyl-4-(trifluoromethoxy) benzamide]	at least 75%	at least 75%	at least 75%	at least 75%	at least 75%	at least 50%
CCn1nc(-c2ccc(/C=N/N=C3\SCC(=O)N3c3ccccc3C(C)C)cc2)cc1N(C)C(=O)c1ccc(OC(F)(F)F)cc1 [Compound C-35]	at least 75%	at least 75%	at least 75%	at least 75%	at least 75%	at least 50%
CCN(C(=O)c1ccc(OC(F)(F)F)cc1)c1cc(-c2ccc(/C=N/NC(=S)Nc3ccccc3C(C)C)cc2)nn1CC [Compound C-37]	at least 75%	at least 75%	at least 75%	at least 75%	at least 75%	at least 50%
CC(C)c1ccccc1N1C(=O)CSC1=NN=Cc1ccc(-c2cc(COc3ccc(OC(F)(F)F)cc3)n(C)n2)cc1 [Compound C-53]	at least 75%	at least 75%	at least 75%	at least 75%	at least 75%	at least 50%
Cc1ccc(C(C)C)c(NC(=S)N/N=C/c2ccc(-c3nc(NC(=O)c4ccc(OC(F)(F)F)cc4)n(C)n3)cc2)c1 [Compound C-66]	at least 75%	at least 75%	at least 75%	at least 75%	at least 75%	at least 50%

Reference: patent US12528800B2, “Pesticidal compounds” (BASF SE, priority 2018, dated 2026)
